Laboratory results from doi:10.1101/2023.02.01.526449.
Results are given in words; binding and its absence hold for the method and conditions named. Binding seen in cells or lysates may run through a third protein. Where a sequence is shown, tags or fusion partners need not be part of it.

Molecular target: T1, V5-TurboID fused to the lysosomal transmembrane protein TMEM192 (UniProt Q8IY95)
T1 sequence: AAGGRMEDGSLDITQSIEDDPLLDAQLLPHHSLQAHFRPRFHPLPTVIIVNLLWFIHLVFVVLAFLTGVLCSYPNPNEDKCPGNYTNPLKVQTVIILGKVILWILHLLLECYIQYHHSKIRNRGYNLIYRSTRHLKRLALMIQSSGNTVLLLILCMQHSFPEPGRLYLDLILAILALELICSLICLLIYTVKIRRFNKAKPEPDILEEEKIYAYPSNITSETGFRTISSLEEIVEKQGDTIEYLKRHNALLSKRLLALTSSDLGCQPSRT
Assay: co-IP

binding: no binding
B1: Pleckstrin Homology and RhoGEF Domain Containing G3 (protein, UniProt A1L390 1-1219)
chain: MPVSTSLHQDGSQERPVSLTSTTSSSGSSCDSRSAMEEPSSSEAPAKNGAGSLRSRHLPNSNNNSSSWLNVKGPLSPFNSRAAAGPAHHKLSYLGRVVREIVETERMYVQDLRSIVEDYLLKIIDTPGLLKPEQVSALFGNIENIYALNSQLLRDLDSCNSDPVAVASCFVERSQEFDIYTQYCNNYPNSVAALTECMRDKQQAKFFRDRQELLQHSLPLGSYLLKPVQRILKYHLLLQEIAKHFDEEEDGFEVVEDAIDTMTCVAWYINDMKRRHEHAVRLQEIQSLLINWKGPDLTTYGELVLEGTFRVHRVRNERTFFLFDKTLLITKKRGDHFVYKGNIPCSSLMLIESTRDSLCFTVTHYKHSKQQYSIQAKTVEEKRNWTHHIKRLILENHHATIPQKAKEAILEMDSYYPNRYRCSPERLKKAWSSQDEVSTNVRQGRRQSEPTKHLLRQLNEKARAAGMKGKGRRESESSRSSRRPSGRSPTSTEKRMSFESISSLPEVEPDPEAGSEQEVFSAVEGPSAEETPSDTESPEVLETQLDAHQGLLGMDPPGDMVDFVAAESTEDLKALSSEEEEEMGGAAQEPESLLPPSVLDQASVIAERFVSSFSRRSSVAQEDSKSSGFGSPRLVSRSSSVLSLEGSEKGLARHGSATDSLSCQLSPEVDISVGVATEDSPSVNGMEPPSPGCPVEPDRSSCKKKESALSTRDRLLLDKIKSYYENAEHHDAGFSVRRRESLSYIPKGLVRNSISRFNSLPRPDPEPVPPVGSKRQVGSRPTSWALFELPGPSQAVKGDPPPISDAEFRPSSEIVKIWEGMESSGGSPGKGPGQGQANGFDLHEPLFILEEHELGAITEESATASPESSSPTEGRSPAHLARELKELVKELSSSTQGELVAPLHPRIVQLSHVMDSHVSERVKNKVYQLARQYSLRIKSNKPVMARPPLQWEKVAPERDGKSPTVPCLQEEAGEPLGGKGKRKPVLSLFDYEQLMAQEHSPPKPSSAGEMSPQRFFFNPSAVSQRTTSPGGRPSARSPLSPTETFSWPDVRELCSKYASRDEARRAGGGRPRGPPVNRSHSVPENMVEPPLSGRVGRCRSLSTKRGRGGGEAAQSPGPLPQSKPDGGETLYVTADLTLEDNRRVIVMEKGPLPSPTAGLEESSGQGPSSPVALLGQVQDFQQSAECQPKEEGSRDPADPSQQGRVRNLREKFQALNSVG
